According to the supplement of paper PMC3682954:
“And” between values parts separate entries of the source, which are not always exact repeats. Equal entries are not always repeated. Structures can show the parent of a compound that is named as a salt. ± gives the standard deviation of the averaged measurements. The list shows a part of the results. Most values come without repeats; read them as rough.

System: RAW 264.7
Assay: HMGB1-induced TNF-alpha production relative to HMGB1-stimulated control; higher = more TNF-alpha secretion (less inhibition)
Details: stimulus: HMGB1 5 ug/ml, 18 h
[1] = compound concentration: 1 ug/ml

SMILES | HMGB1-induced TNF-alpha production (compound concentration: 3 uM) | HMGB1-induced TNF-alpha production [1] [%]
O=C1Nc2ccc(Cl)cc2C(c2ccccc2Cl)=NC1O (stereo not given) [Lorazepam] | 49.9% | 
CN1CCc2cc(O)cc3c2[C@H]1Cc1ccc(O)c(O)c1-3 [R(-)-2,10,11-Trihydroxyaporphine hybrobromide] | 76.3% | 
CN[C@@H]1[C@@H](O)[C@@H](O[C@@H]2[C@@H](O)[C@H](O[C@H]3O[C@H](CN)CC[C@H]3N)[C@@H](N)C[C@H]2N)OC[C@]1(C)O.CN[C@@H]1[C@@H](O)[C@@H](O[C@@H]2[C@@H](O)[C@H](O[C@H]3O[C@H]([C@@H](C)N)CC[C@H]3N)[C@@H](N)C[C@H]2N)OC[C@]1(C)O.CN[C@@H]1[C@@H](O)[C@@H](O[C@@H]2[C@@H](O)[C@H](O[C@H]3O[C@H]([C@@H](C)NC)CC[C@H]3N)[C@@H](N)C[C@H]2N)OC[C@]1(C)O | 82.3% | 
CN[C@@H]1[C@@H](O)[C@@H](O[C@@H]2[C@@H](O)[C@H](O[C@H]3O[C@H](CN)CC[C@H]3N)[C@@H](N)C[C@H]2N)OC[C@]1(C)O.CN[C@@H]1[C@@H](O)[C@@H](O[C@@H]2[C@@H](O)[C@H](O[C@H]3O[C@H]([C@@H](C)N)CC[C@H]3N)[C@@H](N)C[C@H]2N)OC[C@]1(C)O.CN[C@@H]1[C@@H](O)[C@@H](O[C@@H]2[C@@H](O)[C@H](O[C@H]3O[C@H]([C@@H](C)NC)CC[C@H]3N)[C@@H](N)C[C@H]2N)OC[C@]1(C)O [Gentamicine sulfate] | 95.1% | 
Cn1c(CCCC(=O)O)nc2cc(N(CCCl)CCCl)ccc21 [Bendamustine hydrochloride] | 101% | 
CN(C)Cc1c[nH]c2c(OCc3ccccc3)cccc12 [7-Benzyloxygramine] |  | 104
Oc1ccc2c3c1O[C@H]1c4[nH]c5ccccc5c4C[C@@]4(O)[C@@H](C2)N(CC2CC2)CC[C@]314 [Naltrindole hydrochloride] | 113% | 
Oc1ccc2c3c1O[C@H]1c4[nH]c5ccccc5c4C[C@@]4(O)[C@@H](C2)N(CC2CC2)CC[C@]314 [Naltrindole] | 102 ± 6.2% | 
O=C(O)CCCO | 90.3% | 
N[C@]1(C(=O)O)CC[C@H](C(=O)O)C1 (racemic) [trans-(±)-ACPD] | 87.7% | 
CC(NC(C)(C)C)C(=O)c1cccc(Cl)c1 (stereo not given) [Amfebutamone] | 105% | 
CC(NC(C)(C)C)C(=O)c1cccc(Cl)c1 (stereo not given) | 98.6% and 95.8% and 75% | 
CC(NC(C)(C)C)C(=O)c1cccc(Cl)c1 (stereo not given) [Bupropion hydrochloride] | 81.19 ± 0.62% | 
CN1CCC2(C)c3cc(O)ccc3N(C)C12 (single isomer, unassigned; (-)) [(-)-Eseroline, Fumarate salt] |  | 61.6
CN1CCC2(C)c3cc(O)ccc3N(C)C12 (single isomer, unassigned; (-)) [(-)-Eseroline fumarate salt] | 140% | 
NCC(CC(=O)O)c1ccc(Cl)cc1 (stereo not given) | 86.2% | 
CN1CC[C@@]2(C)c3cc(O)ccc3N(C)C12 (single isomer, unassigned; (-)) [(-)-Eseroline fumarate] | 87.8% | 91

Part of the list above, tab-delimited:
SMILES	HMGB1-induced TNF-alpha production (compound concentration: 3 uM)	HMGB1-induced TNF-alpha production [1] [%]
CN[C@@H]1[C@@H](O)[C@@H](O[C@@H]2[C@@H](O)[C@H](O[C@H]3O[C@H](CN)CC[C@H]3N)[C@@H](N)C[C@H]2N)OC[C@]1(C)O.CN[C@@H]1[C@@H](O)[C@@H](O[C@@H]2[C@@H](O)[C@H](O[C@H]3O[C@H]([C@@H](C)N)CC[C@H]3N)[C@@H](N)C[C@H]2N)OC[C@]1(C)O.CN[C@@H]1[C@@H](O)[C@@H](O[C@@H]2[C@@H](O)[C@H](O[C@H]3O[C@H]([C@@H](C)NC)CC[C@H]3N)[C@@H](N)C[C@H]2N)OC[C@]1(C)O [Gentamicine sulfate]	95.1%	
Cn1c(CCCC(=O)O)nc2cc(N(CCCl)CCCl)ccc21 [Bendamustine hydrochloride]	101%	

(next part)

SMILES | HMGB1-induced TNF-alpha production (compound concentration: 3 uM) | HMGB1-induced TNF-alpha production [1] [%]
CC(C)[C@]12O[C@H]1[C@@H]1O[C@]13[C@]1(O[C@H]1C[C@H]1C4=C(CC[C@@]13C)C(=O)OC4)[C@@H]2O | 0.053% | 
CC(=O)[C@H]1CC[C@H]2[C@@H]3CC[C@H]4C[C@H](O)CC[C@]4(C)[C@H]3CC[C@]12C [5alpha-Pregnan-3alpha-ol-20-one] | 95.7% | 
C=CCSSCC=C | 107% | 
CC(C)[N+](C)(CCC(C(N)=O)(c1ccccc1)c1ccccc1)C(C)C | 111% | 
CC(C)[N+](C)(CCC(C(N)=O)(c1ccccc1)c1ccccc1)C(C)C [Isopropamide iodide] | 102% | 
C#C[C@]1(O)CC[C@H]2[C@@H]3CCC4=CC(=O)CC[C@]4(C)[C@H]3CC[C@@]21C | 98.6% | 
C#C[C@]1(O)CC[C@H]2[C@@H]3CCC4=CC(=O)CC[C@]4(C)[C@H]3CC[C@@]21C [Ethisterone] | 80 ± 8.7% | 
COP(=S)(OC)Oc1ccc(SC)c(C)c1 | 57.9% | 
O=c1[nH]c2ccccc2n1CCCN1CCC(n2c(=O)[nH]c3cc(Cl)ccc32)CC1 [Domperidone] | 85.4 ± 28% | 
O=C([O-])c1ccccc1-c1c2cc(Br)c(=O)cc-2oc2[c]([Hg+])c([O-])c(Br)cc12.[Na+].[Na+].[OH-] | 86.9% | 
O=C([O-])c1ccccc1-c1c2cc(Br)c(=O)cc-2oc2[c]([Hg+])c([O-])c(Br)cc12.[Na+].[Na+].[OH-] [Merbromin] | 83.1% | 
COc1ccc(CC2c3cc(OC)c(OC)cc3CCN2C)cc1OC (stereo not given) [Laudanosine] |  | 75.5
C=CCN1CC[C@]23c4c5ccc(O)c4O[C@H]2/C(=N/NC(=O)c2ccccc2)CC[C@@]3(O)[C@H]1C5 [Naloxone benzoylhydrazone] | 113% | 
CNC1(c2ccccc2Cl)CCCCC1=O (stereo not given) | 88.3% | 
CC(C)CC(N(C)C)C1(c2ccc(Cl)cc2)CCC1 (stereo not given) [Sibutramine] | 91.8 ± 24% | 
CC(C)CC(N(C)C)C1(c2ccc(Cl)cc2)CCC1 (stereo not given) [Sibutramine HCl] | 65.9% | 
CC(C)CC(N(C)C)C1(c2ccc(Cl)cc2)CCC1 (stereo not given) | 84.5% and 87.2% | 
